Laboratory results published in PubChem BioAssay AID1347076 (National Center for Advancing Translational Sciences (NCATS), 2019).
Out of some 400,000 compounds screened, about 13,000 (3.2%) were called active. The shares of active, inactive and inconclusive entries below differ from those in the screen. Calls come from the whole dose curve; as a rule, active = well fitted cell-killing curve with a large enough effect; inconclusive = small, poorly fitted or top-dose-only effect, or effect the other way; inactive = flat fitted curve, though single readings scatter. A potency beside an inconclusive call is a rough fit, not a confirmed value.

Assay: qHTS assay for MDR1-selective chemotherapeutics: Primary screen using the drug-selected MDR subline cells KB-V1; note: nearly all actives have a fitted effect of over 60% in size
Conditions: KB-V1 MDR cells viability, CellTiter-Glo, 72 h; series mostly up to 46.1 µM
How it was run: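 qHTS viability screen in drug-selected KB-V1 MDR cells: 72 h compound treatment at 37 degrees C, ATP luminescence end point.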
Potency is the fitted concentration of half-maximal effect.

Question: Which Potency does the source give for `Cc1ccc([N+](=O)[O-])cc1NC(=O)CSc1nncn1-c1ccccn1` here?
Answer: inconclusive: 16.4 µM [cytotoxic, partial curve]

Question: With `CC(=O)NC(Cc1ccccc1)C(=O)O` (stereo not drawn) as the molecule, how does the Potency read?
Answer: inconclusive: 20.6 µM [rising, single point]

Question: Which Potency does the source give for `CCOC(=O)C1CCN(S(=O)(=O)c2ccccc2[N+](=O)[O-])CC1` here?
Answer: inactive

Question: For `COc1cccc(C2c3[nH]c4ccccc4c3C[C@H]3C(=O)N(c4ccccc4C(=O)NCCCN4CCOCC4)C(=O)N23)c1` (stereo partly drawn), which Potency is on record?
Answer: inconclusive: 29.1 µM [rising, single point]

Question: For `Cc1ccc(C(C)C)c(OCC(=O)Nc2ccccc2N2CCN(C)CC2)c1`, which Potency is on record?
Answer: inconclusive: 16.4 µM [cytotoxic, single point]

Question: With `Cc1ccc(-n2c(=O)c3c4c(sc3n(Cc3ccccc3C)c2=O)CCC4)cc1C` as the molecule, how does the Potency read?
Answer: inactive

Question: Which Potency does the source give for `Cn1c(=O)n(C)c2cc(NC(=O)CCl)ccc21` here?
Answer: active: 16.4 µM

Question: Which Potency does the source give for `N#C/C(=C\c1cccnc1)c1nc2c(s1)CCCC2` here?
Answer: inconclusive: 29.1 µM [cytotoxic, single point]

Question: Which Potency does the source give for `CCc1ccc(-c2csc(NC(=O)Oc3ccccc3)n2)cc1` here?
Answer: inconclusive: 29.1 µM [rising, single point]

Question: For `Cc1ccccc1C(=O)Nc1nc2nc(-c3ccccc3)cc(=O)n2[nH]1`, which Potency is on record?
Answer: inconclusive: 18.4 µM [rising, single point]

Question: For `O=C(c1ccc(S(=O)(=O)c2cccc(Cl)c2)c([N+](=O)[O-])c1)N1CCN(Cc2ccccc2)CC1`, which Potency is on record?
Answer: inconclusive: 18.4 µM [cytotoxic, single point]

Question: With `Cc1ccc(S(=O)(=O)N2CCCCC2C(=O)NCc2ccco2)cc1` (stereo not drawn) as the molecule, how does the Potency read?
Answer: inconclusive: 23.1 µM [cytotoxic, single point]

Question: For `CCC(c1nnnn1Cc1ccc2c(c1)OCO2)N1CCN(c2ccccc2)CC1` (stereo not drawn), which Potency is on record?
Answer: inconclusive: 25.1 µM [cytotoxic, single point]

Question: Which Potency does the source give for `Cc1ncsc1CCC(=O)N1CCCC(Nc2ccc(F)c(F)c2)C1` (stereo not drawn) here?
Answer: inconclusive: 11.6 µM [cytotoxic, partial curve]

Question: For `O=c1cc(-c2ccc(Cl)cc2)oc(=O)[nH]1`, which Potency is on record?
Answer: inactive

Question: With `CCN(C(=O)CN1C(=O)COc2ccc(S(=O)(=O)N3CCCCCC3)cc21)c1cccc(C)c1` as the molecule, how does the Potency read?
Answer: inconclusive: 3.26 µM [cytotoxic, full curve, poor fit]

Question: For `CC(=O)c1c(C)nc(-c2ccc(Cl)cc2Cl)n1O`, which Potency is on record?
Answer: inactive

Question: For `Cc1cc(C)n2cc(CSc3nnc(N)s3)nc2n1`, which Potency is on record?
Answer: inconclusive: 7.31 µM [rising, partial curve]

Question: For `Cc1c(NCc2cccnc2)cccc1C(=O)O`, which Potency is on record?
Answer: inconclusive: 29.1 µM [rising, single point]

Question: For `COc1ccc(O)cc1`, which Potency is on record?
Answer: inconclusive: 29.1 µM [cytotoxic, single point]

Question: With `Cc1ccc(C)c(OCc2cc(C(=O)NC3CCOC(C)(C)C3)no2)c1` (stereo not drawn) as the molecule, how does the Potency read?
Answer: inactive

Question: With `CC(CCC(=O)O)C1CCC2C3CCC4C[C@H](O)CCC4(C)C3CC(=O)C12C` (stereo partly drawn) as the molecule, how does the Potency read?
Answer: inconclusive: 16.4 µM [rising, partial curve]

Question: Which Potency does the source give for `NC(=O)Cc1nc(-c2ccc(F)cc2)cs1` here?
Answer: inactive

Question: Which Potency does the source give for `O=S(=O)(Nc1ccc(Br)cn1)c1ccc(Cl)s1` here?
Answer: inactive

Question: With `CCCN1CCN(CCNC(=O)Nc2ccccc2Cl)CC1` as the molecule, how does the Potency read?
Answer: inactive

Question: With `CCc1ccc(NC(=O)Cn2c(=O)n(CCCCC(=O)NCCc3ccccc3)c(=O)c3ccccc32)cc1` as the molecule, how does the Potency read?
Answer: inconclusive: 29.1 µM [rising, single point]

Question: For `Cc1ccc(S(=O)(=O)N2CCC(C(=O)O)CC2)cc1`, which Potency is on record?
Answer: inactive

Question: With `COc1ccc(OC)c(N/C(C)=C/C(=O)c2ccc(Br)cc2)c1` as the molecule, how does the Potency read?
Answer: inconclusive: 23.1 µM [cytotoxic, partial curve]

Question: For `CCCCCc1ccc(-c2nnc(N)s2)cc1`, which Potency is on record?
Answer: inconclusive: 20.6 µM [rising, single point]

Question: Which Potency does the source give for `CCc1nc2c(OCc3cc(Cl)cc(Cl)c3)cccn2c1N(C=O)Cc1ccccc1` here?
Answer: active: 20.6 µM

Question: Which Potency does the source give for `Cn1c(O)c(/C=C2\C=NN=C2c2ccccc2)sc1=S` here?
Answer: inactive

Question: With `CC[N+]1(C)CCC(O)(c2ccc(OC)cc2)C(C(=O)c2ccc(OC)cc2)C1` (stereo not drawn) as the molecule, how does the Potency read?
Answer: inconclusive: 29.1 µM [cytotoxic, single point]

Question: Which Potency does the source give for `Cn1c(/C(C#N)=C(\O)COc2ccc3ccccc3c2)nc2ccccc21` here?
Answer: inconclusive: 29.1 µM [cytotoxic, single point]

Question: For `COc1cc(CNCCc2ccc(S(N)(=O)=O)cc2)ccc1OCC(=O)NC(C)(C)C`, which Potency is on record?
Answer: inconclusive: 29.1 µM [rising, single point]

Question: With `CCC(C)(C)NC(=O)C1CCN(S(=O)(=O)c2c(C)noc2/C=C/c2ccc(C)cc2)CC1` as the molecule, how does the Potency read?
Answer: inactive

Question: For `CCC(C)(C)NC(=O)C(c1cccn1C)N(C(=O)Cn1nnc2ccccc21)c1ccc(NC(C)=O)cc1` (stereo not drawn), which Potency is on record?
Answer: inconclusive: 20.6 µM [rising, single point]

Question: For `CCC(C)(C)NC(=O)C(C(C)C)N(CC1CCCO1)C(=O)CNS(=O)(=O)c1ccccc1` (stereo not drawn), which Potency is on record?
Answer: inactive

Question: Which Potency does the source give for `O=C(CSc1ccccc1)NC1=NCCS1` here?
Answer: inactive

Question: Which Potency does the source give for `COc1ccc(/C=C/C(=O)Nc2ccc3c(c2)CCC3)cc1OC` here?
Answer: active: 20.6 µM

Question: Which Potency does the source give for `CCOC(=O)N1CCC(n2c(SCC(=O)NCCC3=CCCCC3)nc3ccccc3c2=O)CC1` here?
Answer: active: 8.2 µM

Question: Which Potency does the source give for `Cc1cccc(NC(=O)c2nc[nH]c2C(=O)Nc2cc(Br)ccc2F)c1` here?
Answer: inconclusive: 20.6 µM [cytotoxic, single point]

Question: With `O=C(Nc1ccccc1)Nc1ncc(C(F)(F)F)cc1Cl` as the molecule, how does the Potency read?
Answer: inactive

Question: For `O=C(CNC(=O)c1sc2ccccc2c1Cl)NCc1cccc(C(F)(F)F)c1`, which Potency is on record?
Answer: inactive

Question: For `CCOc1ccc(CN(C)CC(=O)NCc2ccc(F)cc2)cc1`, which Potency is on record?
Answer: inconclusive: 20.6 µM [cytotoxic, single point]

Question: Which Potency does the source give for `CCc1ccc(C(C#N)=CC=Cc2ccccc2)cc1` here?
Answer: inconclusive: 29.1 µM [cytotoxic, single point]

Question: With `Cc1ccc(CN(C)C(=O)CN2C(=O)NC(c3ccccc3)(c3ccccc3)C2=O)c(C)c1` as the molecule, how does the Potency read?
Answer: inactive

Question: With `CN=C1S/C(=C\c2cccn2-c2cccc(Br)c2)C(=O)N1C` as the molecule, how does the Potency read?
Answer: inconclusive: 6.51 µM [cytotoxic, partial curve]

Question: Which Potency does the source give for `COc1ccc(CCNS(=O)(=O)c2cc3c4c(c2)CCN4C(=O)CC3)cc1` here?
Answer: inactive
